Among the data in the supplement of paper PMC10849652 are log2 fold change values, retold here.

Chains of the proteins cited; added tags and fusions are not shown. Lines headed by an entry give the natural chain unless they say otherwise; changes in a name come on top.
UniProt P00966: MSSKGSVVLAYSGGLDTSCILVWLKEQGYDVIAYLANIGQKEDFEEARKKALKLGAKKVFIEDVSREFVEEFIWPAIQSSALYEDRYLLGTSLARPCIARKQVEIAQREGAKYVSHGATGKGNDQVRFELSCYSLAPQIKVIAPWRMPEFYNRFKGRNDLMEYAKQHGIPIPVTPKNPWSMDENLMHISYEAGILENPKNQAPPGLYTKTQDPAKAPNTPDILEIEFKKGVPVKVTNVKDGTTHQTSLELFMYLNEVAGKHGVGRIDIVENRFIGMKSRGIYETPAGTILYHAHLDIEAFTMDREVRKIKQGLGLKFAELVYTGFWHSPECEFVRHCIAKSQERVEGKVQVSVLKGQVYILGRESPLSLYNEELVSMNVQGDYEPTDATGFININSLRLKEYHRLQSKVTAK
UniProt Q96NS5: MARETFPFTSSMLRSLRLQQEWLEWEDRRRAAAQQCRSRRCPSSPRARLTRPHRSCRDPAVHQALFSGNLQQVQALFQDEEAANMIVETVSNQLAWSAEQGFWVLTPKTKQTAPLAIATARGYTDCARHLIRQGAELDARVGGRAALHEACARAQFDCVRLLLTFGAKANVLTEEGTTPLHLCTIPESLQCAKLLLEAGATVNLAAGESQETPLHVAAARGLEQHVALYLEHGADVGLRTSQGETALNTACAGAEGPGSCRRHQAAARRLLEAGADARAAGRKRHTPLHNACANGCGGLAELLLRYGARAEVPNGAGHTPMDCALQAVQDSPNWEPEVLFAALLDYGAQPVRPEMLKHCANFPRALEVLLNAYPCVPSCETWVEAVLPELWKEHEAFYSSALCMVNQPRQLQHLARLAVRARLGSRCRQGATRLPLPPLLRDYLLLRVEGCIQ
UniProt O95260: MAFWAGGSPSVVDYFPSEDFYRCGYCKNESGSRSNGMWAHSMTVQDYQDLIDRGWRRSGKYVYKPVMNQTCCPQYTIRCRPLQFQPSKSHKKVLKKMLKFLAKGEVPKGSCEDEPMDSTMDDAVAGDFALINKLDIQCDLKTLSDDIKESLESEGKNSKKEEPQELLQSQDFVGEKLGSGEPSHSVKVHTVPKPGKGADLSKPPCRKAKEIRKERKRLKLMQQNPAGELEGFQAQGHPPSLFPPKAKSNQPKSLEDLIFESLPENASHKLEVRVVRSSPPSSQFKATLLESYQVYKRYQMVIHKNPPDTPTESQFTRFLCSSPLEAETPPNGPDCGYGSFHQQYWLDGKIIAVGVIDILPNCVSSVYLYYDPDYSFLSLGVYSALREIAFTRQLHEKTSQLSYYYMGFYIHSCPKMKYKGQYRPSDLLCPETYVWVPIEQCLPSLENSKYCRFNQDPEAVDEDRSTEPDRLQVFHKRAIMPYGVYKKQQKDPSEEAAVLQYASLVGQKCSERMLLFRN
UniProt B2RBV5: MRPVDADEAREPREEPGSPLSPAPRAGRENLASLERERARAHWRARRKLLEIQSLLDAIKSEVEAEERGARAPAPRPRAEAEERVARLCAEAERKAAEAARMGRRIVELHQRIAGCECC
UniProt P18846: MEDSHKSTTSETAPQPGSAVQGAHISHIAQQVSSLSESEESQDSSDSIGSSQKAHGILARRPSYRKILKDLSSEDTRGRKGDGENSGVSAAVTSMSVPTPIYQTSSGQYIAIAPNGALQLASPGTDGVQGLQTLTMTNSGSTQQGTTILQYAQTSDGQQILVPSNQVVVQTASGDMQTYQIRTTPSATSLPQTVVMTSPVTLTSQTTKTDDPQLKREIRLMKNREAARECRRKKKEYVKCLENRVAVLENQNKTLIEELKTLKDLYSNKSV
UniProt Q96DX5: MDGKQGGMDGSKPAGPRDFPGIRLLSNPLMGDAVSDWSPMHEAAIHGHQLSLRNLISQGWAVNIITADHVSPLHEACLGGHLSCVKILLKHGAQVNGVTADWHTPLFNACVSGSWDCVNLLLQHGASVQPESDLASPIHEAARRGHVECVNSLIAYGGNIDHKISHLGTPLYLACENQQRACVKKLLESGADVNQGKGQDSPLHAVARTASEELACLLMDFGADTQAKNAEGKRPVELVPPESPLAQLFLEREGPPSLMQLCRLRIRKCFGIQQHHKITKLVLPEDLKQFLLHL
UniProt Q8IXJ9: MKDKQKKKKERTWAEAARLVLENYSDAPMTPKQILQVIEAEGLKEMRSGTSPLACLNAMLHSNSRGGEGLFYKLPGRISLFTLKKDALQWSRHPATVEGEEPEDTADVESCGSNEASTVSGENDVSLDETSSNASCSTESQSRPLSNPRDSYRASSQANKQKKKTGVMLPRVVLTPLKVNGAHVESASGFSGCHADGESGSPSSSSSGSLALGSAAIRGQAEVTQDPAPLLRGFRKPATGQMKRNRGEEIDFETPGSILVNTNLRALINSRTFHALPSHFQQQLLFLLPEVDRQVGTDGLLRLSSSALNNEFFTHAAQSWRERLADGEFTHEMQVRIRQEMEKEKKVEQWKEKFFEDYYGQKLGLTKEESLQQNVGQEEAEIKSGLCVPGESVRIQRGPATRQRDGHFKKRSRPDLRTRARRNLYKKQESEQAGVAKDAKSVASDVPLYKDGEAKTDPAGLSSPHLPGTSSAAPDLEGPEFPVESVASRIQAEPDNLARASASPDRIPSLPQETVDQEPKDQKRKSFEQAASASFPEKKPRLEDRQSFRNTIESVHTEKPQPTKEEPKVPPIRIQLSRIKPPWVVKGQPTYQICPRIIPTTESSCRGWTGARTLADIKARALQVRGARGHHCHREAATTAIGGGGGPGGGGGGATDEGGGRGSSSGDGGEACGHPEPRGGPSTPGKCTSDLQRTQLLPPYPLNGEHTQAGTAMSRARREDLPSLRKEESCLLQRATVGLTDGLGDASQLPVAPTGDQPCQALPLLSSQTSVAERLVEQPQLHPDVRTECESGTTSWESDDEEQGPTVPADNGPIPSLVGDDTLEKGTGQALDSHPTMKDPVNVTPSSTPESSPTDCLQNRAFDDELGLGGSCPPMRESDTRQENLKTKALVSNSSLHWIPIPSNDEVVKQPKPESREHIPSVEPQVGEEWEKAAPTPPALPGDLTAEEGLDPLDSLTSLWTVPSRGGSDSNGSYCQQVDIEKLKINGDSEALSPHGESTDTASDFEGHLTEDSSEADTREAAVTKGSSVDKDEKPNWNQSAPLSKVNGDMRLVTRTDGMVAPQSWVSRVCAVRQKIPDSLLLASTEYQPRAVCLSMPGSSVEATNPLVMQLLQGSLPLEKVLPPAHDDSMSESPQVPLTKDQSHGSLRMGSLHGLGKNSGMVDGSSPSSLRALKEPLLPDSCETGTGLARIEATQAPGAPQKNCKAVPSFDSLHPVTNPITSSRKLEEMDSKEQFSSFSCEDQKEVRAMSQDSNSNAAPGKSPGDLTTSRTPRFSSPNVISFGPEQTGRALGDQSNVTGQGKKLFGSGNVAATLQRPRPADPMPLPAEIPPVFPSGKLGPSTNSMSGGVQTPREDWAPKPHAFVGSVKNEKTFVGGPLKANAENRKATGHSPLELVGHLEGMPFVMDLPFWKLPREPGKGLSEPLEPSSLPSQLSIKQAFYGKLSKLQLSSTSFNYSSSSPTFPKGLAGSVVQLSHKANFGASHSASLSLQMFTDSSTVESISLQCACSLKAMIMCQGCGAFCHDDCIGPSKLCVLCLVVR
UniProt Q93050, whole entry, looked up: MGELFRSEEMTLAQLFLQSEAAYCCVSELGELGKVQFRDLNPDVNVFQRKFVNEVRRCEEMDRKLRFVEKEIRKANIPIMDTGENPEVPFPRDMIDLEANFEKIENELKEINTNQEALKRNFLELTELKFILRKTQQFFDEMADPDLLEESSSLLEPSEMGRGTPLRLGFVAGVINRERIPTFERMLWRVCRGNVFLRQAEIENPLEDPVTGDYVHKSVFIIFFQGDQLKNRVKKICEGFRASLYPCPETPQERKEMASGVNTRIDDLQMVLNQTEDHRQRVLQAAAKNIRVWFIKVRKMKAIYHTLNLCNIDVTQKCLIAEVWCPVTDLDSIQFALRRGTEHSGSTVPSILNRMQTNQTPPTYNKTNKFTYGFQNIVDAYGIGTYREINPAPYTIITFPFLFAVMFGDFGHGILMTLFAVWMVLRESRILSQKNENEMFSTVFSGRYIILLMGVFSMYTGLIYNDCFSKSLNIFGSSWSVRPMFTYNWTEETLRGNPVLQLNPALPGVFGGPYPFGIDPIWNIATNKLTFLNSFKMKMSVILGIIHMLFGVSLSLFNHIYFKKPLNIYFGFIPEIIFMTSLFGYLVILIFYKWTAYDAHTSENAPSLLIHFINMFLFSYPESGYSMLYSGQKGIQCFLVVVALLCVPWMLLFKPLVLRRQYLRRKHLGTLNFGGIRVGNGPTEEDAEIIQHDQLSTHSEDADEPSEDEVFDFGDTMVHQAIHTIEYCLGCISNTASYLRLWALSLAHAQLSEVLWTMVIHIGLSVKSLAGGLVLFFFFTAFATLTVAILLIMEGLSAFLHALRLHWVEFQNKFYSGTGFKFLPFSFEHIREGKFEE
UniProt Q76L83: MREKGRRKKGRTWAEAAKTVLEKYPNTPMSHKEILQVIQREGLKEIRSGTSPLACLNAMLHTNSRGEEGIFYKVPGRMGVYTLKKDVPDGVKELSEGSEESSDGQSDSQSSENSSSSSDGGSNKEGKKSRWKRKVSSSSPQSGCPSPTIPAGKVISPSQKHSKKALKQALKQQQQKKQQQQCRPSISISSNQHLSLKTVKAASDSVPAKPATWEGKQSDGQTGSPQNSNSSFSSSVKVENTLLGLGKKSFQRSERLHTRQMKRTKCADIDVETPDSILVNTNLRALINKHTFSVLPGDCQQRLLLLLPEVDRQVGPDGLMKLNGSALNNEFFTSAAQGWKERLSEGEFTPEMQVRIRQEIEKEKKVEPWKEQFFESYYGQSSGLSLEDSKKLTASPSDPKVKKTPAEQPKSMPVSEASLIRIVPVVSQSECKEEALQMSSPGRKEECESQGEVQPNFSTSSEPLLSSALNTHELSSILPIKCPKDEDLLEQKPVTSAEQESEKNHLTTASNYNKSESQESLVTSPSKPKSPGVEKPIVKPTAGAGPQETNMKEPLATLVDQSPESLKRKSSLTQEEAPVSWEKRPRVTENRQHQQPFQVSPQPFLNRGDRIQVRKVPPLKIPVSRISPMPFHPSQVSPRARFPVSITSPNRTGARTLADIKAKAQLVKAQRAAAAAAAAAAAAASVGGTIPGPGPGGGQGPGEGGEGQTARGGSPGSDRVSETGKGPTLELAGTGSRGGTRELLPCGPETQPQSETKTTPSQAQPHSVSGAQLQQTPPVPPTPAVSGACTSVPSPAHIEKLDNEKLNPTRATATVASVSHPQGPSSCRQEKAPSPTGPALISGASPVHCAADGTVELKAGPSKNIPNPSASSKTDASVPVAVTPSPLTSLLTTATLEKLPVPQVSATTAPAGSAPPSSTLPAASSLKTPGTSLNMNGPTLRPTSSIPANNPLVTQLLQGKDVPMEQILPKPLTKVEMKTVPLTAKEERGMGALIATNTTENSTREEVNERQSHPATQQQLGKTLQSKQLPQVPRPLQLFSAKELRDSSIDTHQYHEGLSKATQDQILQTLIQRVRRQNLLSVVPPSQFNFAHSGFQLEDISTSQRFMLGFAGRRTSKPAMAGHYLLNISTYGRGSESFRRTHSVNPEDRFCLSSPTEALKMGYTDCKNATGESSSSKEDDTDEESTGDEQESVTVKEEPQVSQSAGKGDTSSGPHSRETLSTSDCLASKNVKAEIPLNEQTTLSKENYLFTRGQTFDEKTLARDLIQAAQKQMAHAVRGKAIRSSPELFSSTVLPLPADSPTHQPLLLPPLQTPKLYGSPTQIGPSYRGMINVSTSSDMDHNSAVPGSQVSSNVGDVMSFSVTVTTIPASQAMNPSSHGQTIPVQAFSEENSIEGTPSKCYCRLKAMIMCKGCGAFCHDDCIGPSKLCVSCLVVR
UniProt Q9NWL6: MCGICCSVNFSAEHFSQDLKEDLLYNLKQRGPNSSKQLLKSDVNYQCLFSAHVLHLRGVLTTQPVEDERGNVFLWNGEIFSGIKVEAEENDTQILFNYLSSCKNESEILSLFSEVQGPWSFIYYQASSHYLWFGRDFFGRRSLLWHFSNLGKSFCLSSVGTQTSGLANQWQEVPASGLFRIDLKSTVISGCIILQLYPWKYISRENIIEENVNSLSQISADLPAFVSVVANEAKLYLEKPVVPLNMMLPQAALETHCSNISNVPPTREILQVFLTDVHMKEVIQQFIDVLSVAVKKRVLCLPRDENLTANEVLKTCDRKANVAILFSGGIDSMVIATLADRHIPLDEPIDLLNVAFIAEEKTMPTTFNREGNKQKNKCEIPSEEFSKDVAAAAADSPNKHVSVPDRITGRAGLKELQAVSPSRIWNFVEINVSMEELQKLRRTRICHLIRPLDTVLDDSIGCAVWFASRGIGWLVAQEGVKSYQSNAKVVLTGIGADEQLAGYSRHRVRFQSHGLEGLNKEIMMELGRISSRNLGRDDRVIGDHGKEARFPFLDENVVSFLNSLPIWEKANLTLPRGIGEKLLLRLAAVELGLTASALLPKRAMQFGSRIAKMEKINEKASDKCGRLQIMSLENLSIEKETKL

Some of the results follow.

Compound in one assay: COc1cc2nc(-c3cc(F)ccc3O)nc(N[C@@H]3CNC[C@H]3C(C)(C)O)c2cc1OC
Nature of the assay: log2 fold change, soluble protein after heating vs DMSO (PISA); higher = thermal stabilisation; K562 lysate, 10 uM; active = over 0.2 and 3.5 SD of the protein, either way, in both replicates (recomputed). In a few lines: (§1)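 To prepare the extract, K562 pellets were dounce-homogenised in PBS pH 7.4 with 1 mM MgCl2, giving crude material at 1 mg/mL protein. This was treated with 10 μM compound for 30 min, then heated in aliquots for 3 min over 48°C-58°C before pooling and addition of NP-40 to 0.5% at 4°C. Centrifugation at 21,000xg for 90 min left soluble protein in the supernatant, which TMTpro 16plex LC-MS/MS quantified with equalised channel sums. Results are log-two fold changes in thermal stability compared with solvent controls, from duplicates.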
On to ASTE1 (UniProt Q2TB18), for which the log2 fold change is inactive: 0.044.

For ASS1 (UniProt P00966), the log2 fold change is inactive: -0.034.

As for ASB16 (UniProt Q96NS5), the log2 fold change was inactive: 0.118. As for ATE1 (UniProt O95260), the log2 fold change was inactive: 0.044. The same measure, in the same setting: the same measure for NA (UniProt B2RBV5): inactive: 0.115; for ATF1 (UniProt P18846): inactive: 0.024. In the case of ASB9 (UniProt Q96DX5), the log2 fold change is inactive: 0.14. The same measure, in the same setting: in the case of ASXL3 (UniProt Q9C0F0) it was inactive: 0.017; in that of B3GALNT2 (UniProt Q8NCR0), inactive: -0.163.

Consider ASXL1 (UniProt Q8IXJ9), for which the log2 fold change is inactive: -0.03.

For the target ATP6V0A1 (UniProt Q93050), the log2 fold change is inactive: -0.167.

With ATG2A (UniProt Q2TAZ0), the log2 fold change was inactive: 0.205. With ATP1B4 (UniProt Q9UN42), the log2 fold change was inactive: 0.03.

Regarding ATP1B1 (UniProt P05026), the log2 fold change is inactive: 0.06. For ATXN7L3 isoform 2 (UniProt Q14CW9), the log2 fold change was inactive: 0.248.

B3GNTL1 (UniProt Q67FW5): the log2 fold change is inactive: -0.057.

For the target ASXL2 (UniProt Q76L83), the log2 fold change is inactive: 0.056. For ATP5F1B (UniProt H0YI37), the log2 fold change was inactive: 0.404. Turning to ATP5F1A (UniProt K7ENJ4), the log2 fold change is inactive: 0.005.

Turning to ATP5F1B (UniProt F8W079), the log2 fold change was inactive: -0.063. Consider ATP11C, A0A067XG54, for which the log2 fold change is inactive: -0.02.

Compound in another assay: COc1cc2ncnc(Nc3ccc(F)c(Cl)c3)c2cc1OCCCN1CCOCC1 [gefitinib]
The assay is described as above. In a few lines: as §1
ASS1 (UniProt P00966): the log2 fold change is inactive: 0.054. On the same count and under the same terms, in the case of ASNSD1 (UniProt Q9NWL6) it was inactive: -0.263.

As for NA (UniProt B2RBV5), the log2 fold change was inactive: -0.054. On to ATF1 (UniProt P18846), for which the log2 fold change is inactive: 0. Turning to B3GALNT2 (UniProt Q8NCR0), the log2 fold change is inactive: 0.161.

On to ASXL1 (UniProt Q8IXJ9), for which the log2 fold change is inactive: -0.025.

With ATAD5 (UniProt Q96QE3), the log2 fold change was inactive: 0.043. With ATG2A (UniProt Q2TAZ0), the log2 fold change is inactive: -0.212. For the target ATP1B1 (UniProt P05026), the log2 fold change was inactive: -0.019. As to ATXN7L3 isoform 2 (UniProt Q14CW9), the log2 fold change is inactive: -0.135. On to ATP5F1B (UniProt H0YI37), for which the log2 fold change is inactive: 0.292. As to ATP5F1A (UniProt K7ENJ4), the log2 fold change was inactive: -0.023. Turning to ATP5F1B (UniProt F8W079), the log2 fold change was inactive: -0.051.
